The values that follow come from paper PMC12648443, “Modifications of NU-9, a potent protein aggregation inhibitor. Properties and activity in a cellular model of amyotrophic lateral sclerosis” (Bioorganic chemistry, 2025).

The nature of one data set: in vitro. Particulars: pig, PAMPA, pH 7.5.
The conditions of data set [1]: pig, PAMPA, pH 7.5.

As for `Nc1nc2ccc(OC(F)(F)F)cc2s1` [Riluzole, riluzole, reference compound], in the data set “in vitro”, the Papp is 33.7 ± 0.96 ×10⁻⁶ cm/s. Further, the “Log Pe” value in data set [1] was −4.47.
